The results in this text go back to patent US20260258083A1 (AMGEN INC., priority 2023, published 2026).

A short description of series [1]: peptide synthesis. The note with it: whole synthesis.
Series [2] relates to Steap 1xCD3 TCE SEQ ID NO 373 + 374 + 375. Kind of series: SPR assay of immobilized peptides binding with TCE. Particulars: immobilized peptide, Kinetic 1:1 Binding. How it is done:
(§1) Example 14: SPR Assay of Immobilized Peptides Binding with TCE
(§2) A cytiva CM5 chip was first functionalized with PDEA (2-(2pyridinyldithio)ethaneamine) under standard ((1-ethyl-3-(3-dimethylaminopropyl)carbodiimide)/(N-hydroxysuccinimide) EDC/NHS coupling conditions where the PDEA is dissolved to 20 mM and 1 M NaCl in 0.1 M sodium acetate pH 4.3. Binding peptides were dissolved to 50- or 100-ug/mL respectively in PBST, pH 6.5, and coupling times were optimized to yield the desired surface density.

The subject of series [3] is FLT3xCD3 TCE SEQ ID NO 93. The experiment in a line: SPR assay of immobilized peptides binding with TCE. Particulars: immobilized peptide, Kinetic 1:1 Binding. The protocol:
as §1, §2
Background: Surface plasmon resonance follows binding to a sensor surface in real time, without labels.

Series [4] relates to DLL3xCD3 TCE SEQ ID NO 104. Kind of series: SPR assay of immobilized peptides binding with TCE. The note with it: immobilized peptide, Kinetic 1:1 Binding. How it is done:
as §1, §2

For some assays here: One purity is given for all peptides; the source may state it once. Where no end group is shown, it is not given here. [ ]: non-standard residue; d: D form. pGlu = O=C1CC[C@@H](C(=O)O)N1

As for [pGlu]DGIEELKGC, the “final HPLC purity” value in series [1] is on record as greater than 95%. As to [pGlu]DGSEELKGC, the “final HPLC purity” value in series [1] is given as greater than 95%. Take [pGlu]DGTEELKGC [listing 1 of 2 here]: the results for the “Rmax (RU)” value in series [2], in series [3] and in series [4] were 15.1 RU, 8.1 RU and 11 RU, respectively. [pGlu]DGTEELKGC [listing 2 of 2 here]: the “final HPLC purity” value in series [1] is greater than 95%.

For the substance [pGlu]DGVEELKGC, the “final HPLC purity” value in series [1] is greater than 95%. With “pGlu-DGEEELKGC (N-terminal pyroglutamate; VARIANT 1 Pyroglutamic acid) [listing 1 of 2 here]”, the entries for the “Rmax (RU)” value in series [2], in series [3] and in series [4] were 30.2 RU, 20.3 RU and 47.5 RU, respectively. With “pGlu-DGEEELKGC (N-terminal pyroglutamate; VARIANT 1 Pyroglutamic acid) [listing 2 of 2 here]”, the “final HPLC purity” value in series [1] is greater than 95%. Turning to “pGlu-DGNEELKGC (EDGNEELKGC; non-natural residues)”, the “Rmax (RU)” value in series [2] is listed as 395.1 RU; in series [3], 171 RU; in series [4], 58.5 RU.
